SMILES strings stand for the structures. Structures were worked out from names or drawings and are uncertain.

The chains behind the UniProt entries cited, without tags or fusion partners.
UniProt Q8TDV5, whole entry: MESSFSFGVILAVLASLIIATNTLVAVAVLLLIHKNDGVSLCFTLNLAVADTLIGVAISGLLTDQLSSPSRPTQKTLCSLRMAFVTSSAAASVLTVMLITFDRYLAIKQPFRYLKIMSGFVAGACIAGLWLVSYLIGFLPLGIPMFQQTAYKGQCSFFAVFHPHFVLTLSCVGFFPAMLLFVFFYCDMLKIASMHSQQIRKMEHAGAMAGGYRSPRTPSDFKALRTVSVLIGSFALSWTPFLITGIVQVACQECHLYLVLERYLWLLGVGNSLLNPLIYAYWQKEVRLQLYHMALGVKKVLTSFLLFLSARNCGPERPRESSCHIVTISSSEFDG

By EC50 is commonly meant the concentration at which the effect is half-maximal. Read a high EC50 as a need for much substance.

The target in this test is hGPR119 (Homo sapiens, UniProt Q8TDV5). The test is described as follows: In vitro cyclic AMP assay (Cisbio dynamic 2 HTRF kit) in CHO-hGPR119 cells. Conditions: cAMP. The method, then: cAMP measurements were done using Cisbio dynamic 2 HTRF kit according to the manufacturer's protocol. Briefly, CHO-hGPR119 cells were plated at a cell density of 5000 cells/well/5 μl into a white small volume 384 well plate. The final concentrations of IBMX and DMSO used were 1 mM and 0.5% respectively. Cells were treated with various concentrations of the test compound for 60 min at room temperature. Cells were lysed by buffer containing Anti-cAMP antibody and d2-cAMP reagents and incubated for 1 hour at room temperature. HTRF was measured at 337 nm excitation and emission wavelengths of 665 nm and 620 nm on a microplate reader (Flurostar, BMG Labtech). Graphpad prism software was utilized for EC50 determinations.
A general note: Time-resolved FRET reads energy transfer from a long-lived donor to a nearby acceptor.

`CC(C)c1noc(N2CCC(C(C)Oc3nc4ccc(-c5cccnc5)nc4s3)CC2)n1` (centres unmarked) had an EC50 of 25 to 50 nM. The “Induction (% induction at 1 μM)” value (compound at 1 μM, 60 min) stood at 81%.

Values taken from patent US10526345B2, “Compounds as GPR119 agonists” (Mankind Pharma Ltd., priority 2016, dated 2020).
